In paper PMC4264851:
These are yes or no findings as the source states them, for the method shown. Some entries that bind do so weakly or less than the wild type. Where a sequence is shown, tags or fusion partners need not be part of it. Values belong to the binder of their own block, whether it stands above or below them.

Key:
[1] = molecular target: T1, Utp15-FLAG (S. cerevisiae) (UniProt Q04305); experiment: SEC; bacmid K2000; anti-FLAG eluate (Utp15-FLAG) fractionated on Superose 6 PC 3.2/30 in buffer A100, 4°C; fractions by SDS-PAGE, MS and Western blot (anti-HA, anti-FLAG)
T1 sequence: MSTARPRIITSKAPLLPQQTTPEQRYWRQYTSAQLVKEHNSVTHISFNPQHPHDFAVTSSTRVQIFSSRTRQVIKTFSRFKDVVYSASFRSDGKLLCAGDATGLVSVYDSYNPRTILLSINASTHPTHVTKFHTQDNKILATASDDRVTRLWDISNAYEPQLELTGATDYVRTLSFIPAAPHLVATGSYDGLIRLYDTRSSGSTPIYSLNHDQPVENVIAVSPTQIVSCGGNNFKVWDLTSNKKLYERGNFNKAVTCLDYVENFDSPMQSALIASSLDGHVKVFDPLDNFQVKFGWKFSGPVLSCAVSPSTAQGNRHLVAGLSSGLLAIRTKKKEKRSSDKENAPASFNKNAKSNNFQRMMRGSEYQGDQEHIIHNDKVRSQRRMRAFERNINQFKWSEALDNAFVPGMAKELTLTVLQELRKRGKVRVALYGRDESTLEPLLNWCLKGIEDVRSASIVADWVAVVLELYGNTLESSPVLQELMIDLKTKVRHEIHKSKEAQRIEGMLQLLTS

[2] = molecular target: T1, Utp15-FLAG (S. cerevisiae); experiment: SEC; bacmid K2123; eluate of the two-step purification (Utp4-TAP, then Utp15-FLAG) fractionated on Superose 6; fractions by SDS-PAGE, Coomassie

B2: Utp8 (protein, UniProt P53276 1-713)
chain: MPSLSQPFRLATLPKIASLSNFSLQADYVQVADGTFNESTNNITLGISGSSISQYIINPTPKLTFDYPIPSTNIITACNAEKGQANIDGNIEASTDDEANNEKTINTQKKRNVEIWAFGLMVNKGNYTLNVITKALEDTTDTSNDHLSESDIDNKAYTGSDEFLSQYKIKAKAKVMSIKIDTKNSLVIAILQNGLIEIFDFKLTLLHSFDISYDNLKYAKWFTENGTEYVFVLCPLQDDKVCYKLLELTDCGSGESSPIKELSSTIIEGFSFENSKLCYQFGKLYKLNQGKIYIYSLPHCQLQQVIEFPMVDKLSPGDDLISFQPVSVNRVLLTVNNVIYLLDLLHCSTLSQRELTHVKTFQLLKSAVINSEKSHNSKTIAIGISTKNGPNPTSSLEIINIDVGTNTLKDSLGKSFQVGNNDSSVILKPLFDDKDINDKRVKCNDVSGDSSVPVLHCNEVIEKLSALQDNDITSFDDIFFKELKIKEEHYTEKDRYISDPGFLNKVLDLIFGKFSGNDYPKTLTFLLTHPLFPLSRTRNLLSLLRDQPRLFKQAIVTCPNLPLNELLEELFSIRNRELLLDISFRILQDFTRDSIKQEMKKLSKLDVQNFIEFITSGGEDSSPECFNPSQSTQLFQLLSLVLDSIGLFSLEGALLENLTLYIDKQVEIAERNTELWNLIDTKGFQHGFASSTFDNGTSQKRALPTYTMEYLDI
binding [1]: binds
binding [2]: binds

B4: Utp9 (protein, UniProt P38882 1-575)
chain: MGSSLDLVASFSHDSTRFAFQASVAQKNNVDIYPLNETKDYVVNSSLVSHIDYETNDMKVSDVIFFGWCSDLIDTQSSNIKRKLDEDEGTGESSEQRCENFFVNGFPDGRIVVYSSNGKDIVNIIKNKKEILGADTDESDIWILDSDKVVKKLQYNNSKPLKTFTLVDGKDDEIVHFQILHQNGTLLVCIITKQMVYIVDPSKRRPSTKYSFEISDAVACEFSSDGKYLLIANNEELIAYDLKEDSKLIQSWPVQVKTLKTLDDLIMALTTDGKINNYKIGEADKVCSIVVNEDLEIIDFTPINSKQQVLISWLNVNEPNFESISLKEIETQGYITINKNEKNNADEADQKKLEEKEEEAQPEVQHEKKETETKINKKVSKSDQVEIANILSSHLEANSTEILDDLMSGSWTEPEIKKFILTKINTVDHLSKIFLTISKSITQNPWNEENLLPLWLKWLLTLKSGELNSIKDKHTKKNCKHLKSALRSSEEILPVLLGIQGRLEMLRRQAKLREDLAQLSMQEGEDDEIEVIEHSNVISNPLQDQASPVEKLEPDSIVYANGESDEFVDASEYKD
binding [1]: binds
binding [2]: binds

B5: Utp4 (protein, UniProt Q06679 1-776)
chain: MSSSLLSVLKEKSRSLKIRNKPVKMTSQERMIVHRCRFVDFTPATITSLAFSHKSNINKLTPSDLRLAIGRSNGNIEIWNPRNNWFQEMVIEGGKDRSIEGLCWSNVNGESLRLFSIGGSTVVTEWDLATGLPLRNYDCNSGVIWSISINDSQDKLSVGCDNGTVVLIDISGGPGVLEHDTILMRQEARVLTLAWKKDDFVIGGCSDGRIRIWSAQKNDENMGRLLHTMKVDKAKKESTLVWSVIYLPRTDQIASGDSTGSIKFWDFQFATLNQSFKAHDADVLCLTTDTDNNYVFSAGVDRKIFQFSQNTNKSQKNNRWVNSSNRLLHGNDIRAICAYQSKGADFLVSGGVEKTLVINSLTSFSNGNYRKMPTVEPYSKNVLVNKEQRLVVSWSESTVKIWTMGTDSSTEQNYKLVCKLTLKDDQNISTCSLSPDGQVLVVGRPSTTKVFHLQPVGNKLKVTKLDNDLLLRTSTKLVKFIDNSKIVICSCEDDVFIVDLESEEDEKPQEVELLEVTSTKSSIKVPYINRINHLEVDQNIAVISRGCGVVDILDLKARISKPLARLNNFITAVHINTSRKSVVVITADNKIYEFNMNLNSEAENEDSESVLTQWSKNNTDNLPKEWKTLKENCVGIFSDIENSSRLWFWGATWISRIDFDVDFPINKRRKQKKRTHEGLTITDESNFMNDEEDDEDDDIDMEISENLNVLLNQGNKIKSTDVQRNEESSGHFFFTDKYKPLLFVDLISSNELAIIERNPLTFHSKQKAFIQPKLVF
binding [1]: binds

Now from value to binder:

binding [1]: binds weakly
B1: Nan1-HA (protein, UniProt Q02931 1-896)
chain: MTQSLGIEQYKLSVVSGGKPALNNLSSVTGNKNIARLSQDQRNYIIPFNNQIKVYSVETRQCVKTLKFANNSLLSGIFLQEEENNESIVKILLGDITVPQQEDAHLITVFTNNGHVIVLNYKGKLVESPKHFKISLADEKLANVFHSEGNYRILTTFKDPSQKAHNSLQSYRLYALTFDDAKKQFEVAHQAEWHNVILSNISSNGKLLAHMCKDVSTKDHEHKSISVVSLFDDSVNLSFPLGSILSSQTQSLSYNTRYVSSMAIDNMGQQLAVGFASGVISIVSLADLQIRLLKWHIDSVLSLSFSHDGSYLLSGGWEKVMSLWQLETNSQQFLPRLNGIIIDCQVLGPQGNYYSLILQMTENNSNSDYQFLLLNASDLTSKLSINGPLPVFNSTIKHIQQPISAMNTKNSNSITSLNHSKKKQSRKLIKSRRQDFTTNVEINPINKNLYFPHISAVQIFDFYKNEQVNYQYLTSGVNNSMGKVRFELNLQDPIITDLKFTKDGQWMITYEIEYPPNDLLSSKDLTHILKFWTKNDNETNWNLKTKVINPHGISVPITKILPSPRSVNNSQGCLTADNNGGLKFWSFDSHESNWCLKKISLPNFNHFSNSVSLAWSQDGSLIFHGFDDKLQILDFDTFKKFESLENTKTVSEFTLDSEIQTVKLINDTNLIVATRTTLNAINLLRGQVINSFDLYPFVNGVYKNGHMDRLITCDERTGNIALVINQQLTDLDGVPTINYKSRIIIFDSDLSTKLGNFTHHEYISWIGWNYDTDFIFLDIESTLGVVGTTVNTQLSDEVNNEGILDGLVSNTITTSASNSDIFAEQLHKLSSRGKKSDTRDKNTNDNDEDEEDIALEFINGEKKDKLVNMNSFTSMFDNIQNVQMDTFFDRVMKVLT

binding [1]: binds
binding [2]: binds
B3: Utp5 (protein, UniProt Q04177 1-643)
chain: MDSPVLQSAYDPSGQYLCYVTVALDKQRVGVQPTQRATSSGVDTVWNENFLYLEDSKLKVTCLKWVNLASSDTVAIILGMNNGEIWLYSVLANEVTYKFTTGNSYEIKDIDLMGNQLWCIDSSDAFYQFDLLQFKLLQHFRINNCVQLNKLTIVPAGDSVAQLLVASHSISLIDIEEKKVVMTFPGHVSPVSTLQVITNEFFISGAEGDRFLNVYDIHSGMTKCVLVAESDIKELSHSGQADSIAVTTEDGSLEIFVDPLVSSSTKKRGNKSKKSSKKIQIVSKDGRKVPIYNAFINKDLLNVSWLQNATMPYFKNLQWREIPNEYTVEISLNWNNKNKSADRDLHGKDLASATNYVEGNARVTSGDNFKHVDDAIKSWERELTSLEQEQAKPPQANELLTETFGDKLESSTVARISGKKTNLKGSNLKTATTTGTVTVILSQALQSNDHSLLETVLNNRDERVIRDTIFRLKPALAVILLERLAERIARQTHRQGPLNVWVKWCLIIHGGYLVSIPNLMSTLSSLHSTLKRRSDLLPRLLALDARLDCTINKFKTLNYEAGDIHSSEPVVEEDEDDVEYNEELDDAGLIEDGEESYGSEEEEEGDSDNEEEQKHTSSKQDGRLETEQSDGEEEAGYSDVEME

binding [2]: binds
B6: Utp4-TAP (protein, UniProt Q06679 1-776)
chain: B5 chain
